Laboratory results: PubChem BioAssay AID1259254 (NCATS, 2017)
Shown is a random part of about 59,000 reagents tested. Over the whole deposit, about 1,550 (2.6%) are marked active. 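G2 share is only a proxy for re-replication; each gene was hit by three separate siRNAs, and active genes were retested.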 The numbers tell different reagents against one gene apart. Not all columns of the deposit are shown. Reagent sequences are not shown. The record does not give: the amount of reagent.

- Purpose: 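Finding genes that stop cells copying their DNA twice in one cycle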 (primary screen)
- System: human HCT116 colorectal cancer cells
- Reagent: single siRNA against human genes
- Duration: 3 days
- Detection: 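Nuclei stained with Hoechst and imaged; cell-cycle phase assigned by DNA content; G2 share scaled per plate, non-targeting siRNA 0%, GMNN siRNA 100%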
- Direction: G2 robust z-score: higher = more G2 cells, more excess DNA replication
- Active means: 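An siRNA counts as active if its G2 robust z-score lies at least 5 MADs above the screen median; here such calls match roughly 38% of GMNN control or more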

gene symbol | siRNA no. | G2 robust z-score | activity call
COX20 (cytochrome c oxidase assembly factor COX20) | 1 | 0.785 | inactive
COX20 (cytochrome c oxidase assembly factor COX20) | 2 | -0.491 | inactive
COX20 (cytochrome c oxidase assembly factor COX20) | 3 | -0.54 | inactive
RUVBL2 (RuvB like AAA ATPase 2) | 1 | 3.6 | inactive
RUVBL2 (RuvB like AAA ATPase 2) | 2 | 2.14 | inactive
RUVBL2 (RuvB like AAA ATPase 2) | 3 | -0.223 | inactive
COX4I2 (cytochrome c oxidase subunit 4I2) | 1 | 0.491 | inactive
COX4I2 (cytochrome c oxidase subunit 4I2) | 2 | 4.9 | inactive
COX4I2 (cytochrome c oxidase subunit 4I2) | 3 | 1.66 | inactive
RPS10P9 (ribosomal protein S10 pseudogene 9) | 1 | -0.402 | inactive
RPS10P9 (ribosomal protein S10 pseudogene 9) | 2 | -0.575 | inactive
RPS10P9 (ribosomal protein S10 pseudogene 9) | 3 | 2 | inactive
QRSL1 (glutaminyl-tRNA amidotransferase subunit QRSL1) | 1 | -0.473 | inactive
QRSL1 (glutaminyl-tRNA amidotransferase subunit QRSL1) | 2 | -0.616 | inactive
QRSL1 (glutaminyl-tRNA amidotransferase subunit QRSL1) | 3 | 0.277 | inactive
TBC1D10A (TBC1 domain family member 10A) | 1 | 1.35 | inactive
TBC1D10A (TBC1 domain family member 10A) | 2 | 0.162 | inactive
TBC1D10A (TBC1 domain family member 10A) | 3 | 0.366 | inactive
IFI44L (interferon induced protein 44 like) | 1 | -0.136 | inactive
IFI44L (interferon induced protein 44 like) | 2 | 2.4 | inactive
IFI44L (interferon induced protein 44 like) | 3 | 0.633 | inactive
MRPL2 (mitochondrial ribosomal protein L2) | 1 | 2.51 | inactive
MRPL2 (mitochondrial ribosomal protein L2) | 2 | -0.576 | inactive
MRPL2 (mitochondrial ribosomal protein L2) | 3 | 0.0172 | inactive
EBF4 (EBF transcription factor 4) | 1 | -0.424 | inactive
EBF4 (EBF transcription factor 4) | 2 | -0.262 | inactive
EBF4 (EBF transcription factor 4) | 3 | 1.62 | inactive
PGM1 (phosphoglucomutase 1) | 1 | -1.02 | inactive
PGM1 (phosphoglucomutase 1) | 2 | 1.43 | inactive
PGM1 (phosphoglucomutase 1) | 3 | 2.41 | inactive
